From publication PMC7409020 (Cancers, 2020)

How the values were obtained:
peptide synthesis = settings: whole synthesis
[1] = general procedure: Fmoc solid-phase peptide synthesis; Fmoc-Rink-MBHA resin (0.56 mmol/g); DIC/Oxyma; settings: whole synthesis

| Substance | final purity (method not given) (peptide synthesis) [%] | final purity (method not given) [1] [%] |
| --- | --- | --- |
| PEPTIDE1{A.C.G.L.A.G.L.G.V.A.[am]}$$$$V2.0 | 96 |  |
| PEPTIDE1{A.A.G.L.S.G.L.G.V.A.[am]}$$$$V2.0 |  | >99 |
| PEPTIDE1{A.C.G.L.S.G.A.G.V.A.[am]}$$$$V2.0 | 99 |  |
| PEPTIDE1{A.C.A.L.S.G.L.G.V.A.[am]}$$$$V2.0 |  | 94 |
| PEPTIDE1{A.C.G.L.S.G.L.G.V.A.[am]}$$$$V2.0 | 97 |  |
| ACGLSALGVA | 98 |  |
| PEPTIDE1{A.C.G.A.S.G.L.G.V.A.[am]}$$$$V2.0 |  | >99 |

For some of these results: End groups of sequences in plain letters are not given here. Some peptides are written in HELM: one residue between dots, names in brackets for other building blocks, links after the first $.
